This note sets out measurements from patent publication US6787320B2, “In vitro methods for determining in vivo thrombotic events” (The Scripps Research Institute, priority 1991, dated 2004).

This data set in a line: Competition ELISA (PMI-1, V43 standard) on cell free urine samples from a normal donor. Details: species or system human. The settings on record: for Equivalents of peptide V43 detectable in the urine using PMI-1: normal donor. As to the method:
Assays to detect C-terminal hGPIIb fragment can be performed on “platelet-poor” plasma, serum or urine samples without concentration. Urine (serum and plasma are used in similar fashion) samples were centrifuged at 15,000×g for 5 min at room temp, and the resulting supernatants were collected to form cell free urine samples. The resulting cell-free urine samples are substantially free of platelets and therefore any hGPIIb fragment present in the sample is in the form of soluble, cell-free, hGPIIb fragment. Fifty microliters (ul) of coating solution (0.1M NaHCO3, pH 8.0, 0.1% NaN3) containing 10 ug/ml of isolated GPIIb-IIIa prepared as described in Example 1b were admixed into the wells of flat-bottom 96-well microtiter plates (Immulon 2; Dynatech Laboratories, Chantilly, Va.). The plates were then maintained for 60 minutes at 37° C. to permit the GPIIb-IIIa to adsorb onto the walls of the wells. The coating solution was removed by shaking and 200 ul of blocking solution [5% bovine serum albumin (BSA;w/v) in coating solution] were admixed into each well (solid support) to block excess protein sites.
The wells were maintained for 60 minutes at about 37° C. and then the blocking solution was removed by rinsing the wells thrice with wash buffer (10 mM Tris at pH 7.4, 0.05% (v/v) TWEEN-20, 0.15 M NaCl, and 200 mg/ml merthiolate). […] TAB was obtained from Dr. R. McEver, University of Texas (San Antonio, Tex.). About 50 ul of monoclonal antibody, diluted 1:1 in incubation buffer consisting of 0.1% (w/v) BSA in wash buffer, was admixed, along with the sample to be tested, to each well to form an immunoreaction admixture. The proportions were as follows: […]
Fifty ul of freshly prepared chromogenic substrate solution containing 4.0 mg/ml 0-phenylenediamine and 0.012% (v/v) hydrogen peroxide in CP buffer (243 ml of 0.1 M citric acid and 250 ml of 0.2 M dibasic sodium phosphate per liter H2O, pH 5.0) were then admixed into each well to form a color developing-reaction admixture. After maintaining the color developing-reaction admixture for 10 minutes at about 20 C., 50 ul of 2 N H2SO4 were admixed into each well to stop the developing-reaction, and the resulting solutions were assayed for absorbance at 490 nanometers (nm) light wavelength using a Model 310 ELISA plate reader (Bio-Tek Instruments, Winooski, Vt.).
Absorbance measurements obtained using standard were plotted against micromolar (uM) concentration of standard in the immunoreaction admixture to produce a standard curve. […]
In general terms: In an ELISA, binding on a coated surface is turned into a signal by an enzyme label.

As to “C-terminal hGPIIb fragment: proteolytic fragment of GPIIb heavy chain, SEQ ID NO 3 residues 173 to 200, about 3900 daltons (PQPPVNPLKVDWGLPIPSPSPIHPAHHK)”, the “normalized value of C-terminal hGPIIb fragment in undiluted urine” value (normal donor's urine) stood at 14.4 µM. In addition, the “Equivalents of peptide V43 detectable in the urine using PMI-1” value was 1.5 µM (urine dilution 1:2), 3.8 µM (urine dilution 1:4) and 1.5 µM (urine dilution 1:8).
